# No constants are given. Whether binding was seen depends on the method and setting. Binding calls can cover weak binding; strength is not graded here.
# Molecular target: cynomolgus monkey LILRB4 (cynomolgus monkey)
# Test: flow cytometry on cynomolgus monkey LILRB4, MFI
row,binding,Binder
1,binds,"h193 antibody No. 19 (h193-H3 / h193-K1) (antibody, V domains shown) VH: EVQLVESGGGLVQPGGSLRLSCAASGFSLSSSYWISWVRQAPGKGLEWIGSIDSGSVGITYYATWAKGRFTISRDNSKNTLYLQMNSLRAEDTAVYYCARHGDNWALDLWGQGTLVTVSS VL: DIQMTQSPSTLSASVGDRVTITCQASQSINSWLAWYQQKPGKAPKLLIYKASTLASGVPSRFSGSGSGTEFTLTISSLQPDDFATYYCQHGYIRGDLDNVFGGGTKVEIK"
2,binds,"h193 antibody No. 31 (h193-H6 / h193-K1) (antibody, V domains shown) VH: EVQLVESGGGLVQPGGSLRLSCAASGFSLSSSYWISWVRQAPGKGLEWIGSIDSGSVGITYYATSAKGRFTISRDNSKNTLYLQMNSLRAEDTAVYYCARHGDNWALDLWGQGTLVTVSS VL: DIQMTQSPSTLSASVGDRVTITCQASQSINSWLAWYQQKPGKAPKLLIYKASTLASGVPSRFSGSGSGTEFTLTISSLQPDDFATYYCQHGYIRGDLDNVFGGGTKVEIK"
3,binds,"h193 antibody No. 28 (h193-H5 / h193-K2) (antibody, V domains shown) VH: EVQLVESGGGLVQPGGSLRLSCAASGFSLSSSYWISWVRQAPGKGLEWIGVIDSGSVGITYYATWAKGRFTISRDNSKNTLYLQMNSLRAEDTAVYYCARHGDNWALDLWGQGTLVTVSS VL: DLVMTQSPSTLSASVGDRVTITCQASQSINSWLAWYQQKPGKPPKLLIYKASTLASGVSSRFSGSGSGTEFTLTISSLQPDDVATYYCQHGYIRGDLDNVFGGGTKVEIK"
4,binds,"h193 antibody No. 20 (h193-H3 / h193-K2) (antibody, V domains shown) VH: EVQLVESGGGLVQPGGSLRLSCAASGFSLSSSYWISWVRQAPGKGLEWIGSIDSGSVGITYYATWAKGRFTISRDNSKNTLYLQMNSLRAEDTAVYYCARHGDNWALDLWGQGTLVTVSS VL: DLVMTQSPSTLSASVGDRVTITCQASQSINSWLAWYQQKPGKPPKLLIYKASTLASGVSSRFSGSGSGTEFTLTISSLQPDDVATYYCQHGYIRGDLDNVFGGGTKVEIK"
5,binds,"h193 antibody No. 23 (h193-H4 / h193-K1) (antibody, V domains shown) VH: EVQLVESGGGLVQPGGSLRLSCAASGFSLSSSYWISWVRQAPGKGLEWVSSIDSGSVGITYYATWAKGRFTISRDNSKNTLYLQMNSLRAEDTAVYYCARHGDNWALDLWGQGTLVTVSS VL: DIQMTQSPSTLSASVGDRVTITCQASQSINSWLAWYQQKPGKAPKLLIYKASTLASGVPSRFSGSGSGTEFTLTISSLQPDDFATYYCQHGYIRGDLDNVFGGGTKVEIK"
6,binds,"h193 antibody No. 37 (h193-H7 / h193-K3) (antibody, V domains shown) VH: EVQLVESGGGLVQPGGSLRLSCAASGFSLSSSYWISWVRQAPGKGLEWIGSIDSGSVGITYYATWVKGRFTISRDNSKNTLYLQMNSLRAEDTAVYYCARHGDNWALDLWGQGTLVTVSS VL: DIQMTQSPSTLSASVGDRVTITCRASQSINSWLAWYQQKPGKAPKLLIYKASTLASGVPSRFSGSGSGTEFTLTISSLQPDDFATYYCQHGYIRGDLDNVFGGGTKVEIK"
7,binds,"h193 antibody No. 32 (h193-H6 / h193-K2) (antibody, V domains shown) VH: EVQLVESGGGLVQPGGSLRLSCAASGFSLSSSYWISWVRQAPGKGLEWIGSIDSGSVGITYYATSAKGRFTISRDNSKNTLYLQMNSLRAEDTAVYYCARHGDNWALDLWGQGTLVTVSS VL: DLVMTQSPSTLSASVGDRVTITCQASQSINSWLAWYQQKPGKPPKLLIYKASTLASGVSSRFSGSGSGTEFTLTISSLQPDDVATYYCQHGYIRGDLDNVFGGGTKVEIK"
8,binds,"h193 antibody No. 24 (h193-H4 / h193-K2) (antibody, V domains shown) VH: EVQLVESGGGLVQPGGSLRLSCAASGFSLSSSYWISWVRQAPGKGLEWVSSIDSGSVGITYYATWAKGRFTISRDNSKNTLYLQMNSLRAEDTAVYYCARHGDNWALDLWGQGTLVTVSS VL: DLVMTQSPSTLSASVGDRVTITCQASQSINSWLAWYQQKPGKPPKLLIYKASTLASGVSSRFSGSGSGTEFTLTISSLQPDDVATYYCQHGYIRGDLDNVFGGGTKVEIK"
9,binds,"h193 antibody No. 35 (h193-H7 / h193-K1) (antibody, V domains shown) VH: EVQLVESGGGLVQPGGSLRLSCAASGFSLSSSYWISWVRQAPGKGLEWIGSIDSGSVGITYYATWVKGRFTISRDNSKNTLYLQMNSLRAEDTAVYYCARHGDNWALDLWGQGTLVTVSS VL: DIQMTQSPSTLSASVGDRVTITCQASQSINSWLAWYQQKPGKAPKLLIYKASTLASGVPSRFSGSGSGTEFTLTISSLQPDDFATYYCQHGYIRGDLDNVFGGGTKVEIK"
10,binds,"h193 antibody No. 27 (h193-H5 / h193-K1) (antibody, V domains shown) VH: EVQLVESGGGLVQPGGSLRLSCAASGFSLSSSYWISWVRQAPGKGLEWIGVIDSGSVGITYYATWAKGRFTISRDNSKNTLYLQMNSLRAEDTAVYYCARHGDNWALDLWGQGTLVTVSS VL: DIQMTQSPSTLSASVGDRVTITCQASQSINSWLAWYQQKPGKAPKLLIYKASTLASGVPSRFSGSGSGTEFTLTISSLQPDDFATYYCQHGYIRGDLDNVFGGGTKVEIK"
11,binds,"h193 antibody No. 36 (h193-H7 / h193-K2) (antibody, V domains shown) VH: EVQLVESGGGLVQPGGSLRLSCAASGFSLSSSYWISWVRQAPGKGLEWIGSIDSGSVGITYYATWVKGRFTISRDNSKNTLYLQMNSLRAEDTAVYYCARHGDNWALDLWGQGTLVTVSS VL: DLVMTQSPSTLSASVGDRVTITCQASQSINSWLAWYQQKPGKPPKLLIYKASTLASGVSSRFSGSGSGTEFTLTISSLQPDDVATYYCQHGYIRGDLDNVFGGGTKVEIK"
12,binds,"h193 antibody No. 33 (h193-H6 / h193-K3) (antibody, V domains shown) VH: EVQLVESGGGLVQPGGSLRLSCAASGFSLSSSYWISWVRQAPGKGLEWIGSIDSGSVGITYYATSAKGRFTISRDNSKNTLYLQMNSLRAEDTAVYYCARHGDNWALDLWGQGTLVTVSS VL: DIQMTQSPSTLSASVGDRVTITCRASQSINSWLAWYQQKPGKAPKLLIYKASTLASGVPSRFSGSGSGTEFTLTISSLQPDDFATYYCQHGYIRGDLDNVFGGGTKVEIK"

# Molecular target: cynomolgus monkey LILRB4 (cynomolgus monkey)
# Test: flow cytometry, cynob4-expressing CHO cells, MFI
row,binding,Binder
1,binds,"B4-86 (antibody, V domains shown, Rabbit monoclonal antibody) VH: EQSVESGGDLVKPEGSLTLTCTVSGFSFSSSYWICWVRQAPGKGLEWIGCIGTGSGSTYYGSWAKGRFTISKTSSTTVTLQMTSLTAADTATYFCVRGAGYSSYRLWGPGTLVTISS VL: ELDMTQTPASVSEPVGGTVTIKCQASESVSNWLAWYQQKPGQRPKLLIYGASTLESGVPSRFSGSGSGTEFTLTISNLECADAATYYCQQGYDWDNIDNAFGGGTEVVVK"
2,binds,"B4-87 (antibody, V domains shown, Rabbit monoclonal antibody) VH: QSVKESGGDLVKPGASLTLTCTASGFSFISTYWICWVRQAPGKGLELIACIYTGGSGSTYYASWAKGRFTISKTSSTTVTLQLNSLTAADTATYFCARALYVDYVDYDYIDLWGPGTLVTVSS VL: ELDLTQTPASVEAAVGGTVTIKCQASENIGSRLAWYQQKPGQPPKLLIYAASNLASGVSSRFKGSRSGTQFTLTISDLECADAAIYYCQCSYYGSTYVFGFGGGTEVEIK"
3,binds,"B4-49 (antibody, V domains shown, Rabbit monoclonal antibody) VH: QSLEESGGDLVKPGASLTLTCTASGFDFSSSGWICWVRQAPGKGLELIACIYSGRSGSTYYASWAKGRVTISKTSSTTVTLQMTSLTAADTATYFCARALYVDYVDYDYIDLWGPGTLVTVSS VL: ELDLTQTPASVEAAVGGTVTIKCQASQSTGIRLAWYQQKPGQPPKLLMYATSNLASGVSSRFKGSGSGTEFTLTISDLECADAATYYCQYSYYGSSYVFDFGGGTEVEIK"
4,binds,"B4-116-1 (antibody, V domains shown, Rabbit monoclonal antibody) VH: EQSVEESGGDLVKPGASLTLTCAASGFSFSSTYCMCWVRQAPGKGLEWIACIHGVSTNNRWYASWPKGRFTISKTSSTTVTLQMTSLTAADTATYFCARSDTDYEWGLSLWGPGTLVTISS VL: ELDLTQTPASVSEPVGGTVTIKCQASESIGSRLAWYQQKPGQRPKLLIYKASTLASGVPSRFSGSGSGTEFTLTVSDLECADVAAYYCQCAGQSSTWAFGGGTEVEIK"
5,binds,"B4-116-2 (antibody, V domains shown, Rabbit monoclonal antibody) VH: EQSVEESGGDLVKPGASLTLTCAASGFSFSSTYCMCWVRQAPGKGLEWIACIHGVSTNNRWYASWPKGRFTISKTSSTTVTLQMTSLTAADTATYFCARSDTDYEWGLSLWGPGTLVTISS VL: ELVMTQTPASVEAVVGGTVTIKCQASESIGSRLAWYQQKPGQRPKLLIYKASTLASGVPSRFSGSGSGTEFTLTVSDLECADVAAYYCQCAGQSSTWAFGGGTEVVVK"
6,binds,"B4-15-1 (antibody, V domains shown, Rabbit monoclonal antibody against human LILRB4 ECD) VH: SGGLEESGGRLVTPGTPLTLTCTASGFTINSAHMSWVRQAPGKGLEWIGFSTTGGPSYYANWAKGRFTISRTSTTVDLEITSPTIEDTATYFCARDGPGNNIDMDLWGQGTLVTITS VL: ELDLTQTPASVSEPVGGTVTIKCQASQNRGGSIAWYQQKPGQPPKLLIYSASTLASGVPSRFSGSGYGTEFTLTISGVQCADAGTYYCQSTIYSISDIGAFGGGTEVVVK"
